Source: PubChem BioAssay AID1471 (National Center for Advancing Translational Sciences (NCATS), 2008)
Values joined by “and” are separate entries in the source; they are usually repeats but may differ in a detail not shown here. Equal values may be shown once. Out of some 230,000 compounds screened, about 310 (0.13%) were called active. The shares of active, inactive and inconclusive entries below differ from those in the screen. Calls follow the shape of the dose curve; as a rule, active = well fitted activation curve with a large enough effect; inconclusive = small, poorly fitted or top-dose-only effect; inactive = no such curve, though single readings can be large or run the other way. A potency beside an inconclusive call is a rough fit, not a confirmed value.
Potency is read from the fitted curve at half-maximal effect.

Test: qHTS Multiplex Assay to Identify Dual Action Probes in a Cell Model of Huntington: Cytoprotection (ATP); also: nearly all actives have a fitted effect of over 45% in size;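 as to cytoprotection (ATP increase): toxic huntingtin expression switched on by the ecdysone agonist tebufenozide; % of control where 0% means no effect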
Settings: PC12 HTT-Q103 induced, ATP luminescence, 40 h; cytoprotection (ATP increase): at 56.4 µM (top of the series) unless noted
How it was run: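 Compounds were screened for protection of PC12 cells against cell death after tebufenozide induction (100 nM final) of mutant Huntingtin exon 1 (Q103) fused to GFP.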
With NC(N)=Nc1nc(CSCC/C(N)=N/S(N)(=O)=O)cs1 the Potency was inconclusive: 35.5 µM [activator, single point].
In the case of COCCNc1nc(-c2ccccc2CN(C)C)nc2ccccc12, the “cytoprotection (ATP increase)” value is reported as inactive: -10.5%.
In the case of CSc1ccc2c(c1)N(CCC1CCCCN1C)c1ccccc1S2 (configuration not stated), the Potency is reported as inconclusive: 0.1 µM [activator, full curve, poor fit].
In the case of CCC/C(=N\NC(=O)Cc1csc(N2CCOCC2)n1)c1ccccc1, the Potency is reported as inconclusive: 5.01 µM [activator, single point].
In the case of C/C(=N\O)c1ncc(C(F)(F)F)cc1Cl, the Potency is reported as inconclusive: 35.5 µM [activator, single point].
For CCCn1nnnc1SCC(=O)NCc1ccccc1, the Potency was inconclusive: 1 µM [activator, partial curve, poor fit].
With CCC(C(=O)NC1CCCC1)N(C(=O)Cn1nnc(-c2ccc(OC)c(OC)c2)n1)C1CCCCC1 (configuration not stated) the Potency was inconclusive: 1.26 µM [activator, single point].
With O=C(Nc1ccc(Cl)c(Cl)c1)C1=Cc2ccccc2OC1 the Potency was inconclusive: 3.98 µM [activator, single point].
With CC(C)(C)C(=O)[C@@H]1[C@@H]2C(=O)N(C3CCCCC3)C(=O)[C@@H]2[C@H]2c3ccccc3C=CN12 the “cytoprotection (ATP increase)” value was inactive: 4.48%.
With CCN(CC)S(=O)(=O)c1cccc(C(=O)N2CC(O)CC2C(=O)O)c1 (configuration not stated) the Potency was inconclusive: 35.5 µM [activator, single point].
For COc1ccc(-n2c(Cc3cccn3C)nnc2SCC(=O)Nc2ccc(F)cc2F)cc1, the “cytoprotection (ATP increase)” value was inactive: -3.66%.
For S=C1Cc2ccccc2N1, the Potency was active: 1.26 µM.
For O=C(CSc1nc(-c2ccccc2)c(-c2ccccc2)[nH]1)N1CCN(S(=O)(=O)c2ccccc2)CC1, the “cytoprotection (ATP increase)” value was inactive: -36.9%.
With CC1CCc2sc(NC(=S)NC(=O)c3ccccc3)c(C#N)c2C1 (configuration not stated) the cytoprotection (ATP increase) was inactive: -1.21% [at 10 µM].
For COC1C(O)COC1/C=C/c1ccccc1 (configuration not stated), the Potency was inconclusive: 0.0013 µM [activator].
With CCCCCCCC#Cc1ccccc1C(NC(=O)OC)C(C(=O)OC)C(=O)OC (configuration not stated) the Potency was inconclusive: 0.0018 µM [activator, full curve, poor fit].
For Nc1nc(NC2CC2)c2ncn([C@H]3C=C[C@@H](CO)C3)c2n1, the “cytoprotection (ATP increase)” value was inactive: -231%.
For Cc1nc(Nc2ccncc2)c2oc3ccccc3c2n1, the Potency was inconclusive: 20 µM [activator, single point].
For Cc1nc2ccccn2c1-c1csc(Nc2cccc(O)c2)n1, the Potency was inconclusive: 3.98 µM [activator, partial curve].
In the case of COCCN(C(=S)Nc1c(C)cccc1C)C(C)c1cccs1 (configuration not stated), the Potency is reported as inconclusive: 3.55 µM [activator, single point].
In the case of CS(=O)(=O)c1ccc([C@H](O)[C@H](CO)NC(=O)C(Cl)Cl)cc1, the Potency is reported as inconclusive: 0.355 µM [activator, full curve].
For O=C(COC(=O)CCSc1ccc(Cl)cc1)NCc1ccc(Cl)cc1, the Potency was inconclusive: 3.16 µM [activator, single point].
For NC(=S)N/N=C/c1cc([N+](=O)[O-])ccc1Cl, the Potency was inconclusive: 17.8 µM [activator, single point].
For CCSc1nnc(NC(=O)CSc2nnc(C)c(=O)n2N)s1, the Potency was inconclusive: 31.6 µM [activator, single point].
For COc1ccc(C2CC(=O)Oc3cc(OC)ccc32)cc1 (configuration not stated), the Potency was inconclusive: 7.94 µM [activator, single point].
In the case of O=C(Nc1cc2cc([N+](=O)[O-])ccc2oc1=O)c1cccs1, the Potency is reported as inconclusive: 5.62 µM [activator, single point].
For COC(=O)CSc1nc2sc3c(c2c(=O)n1-c1ccccc1)CCN(C)C3, the Potency was inconclusive: 5.62 µM [activator, single point].
For O=C(c1cccc(F)c1)N1CCC2(CCN(Cc3ccccc3)CC2)CC1, the Potency was inconclusive: 12.6 µM [activator, single point].
With Cc1ccc(SCCC(=O)N2CCCC2)cc1 the “cytoprotection (ATP increase)” value was inactive: -5.21%.
In the case of CCOc1ccccc1N1CCN(C(=S)NC(=O)C23CC4CC(CC(C4)C2)C3)CC1, the cytoprotection (ATP increase) is reported as inactive: -9.37% [at 10 µM].
In the case of COc1cc(OC)cc(C(=O)N/N=C2/SCC(=O)N2Cc2ccco2)c1, the Potency is reported as inconclusive: 0.794 µM [activator, single point].
For COc1ccc(N=C2SC(CC(=O)Nc3ccc(F)cc3)C(=O)N2Cc2ccco2)cc1 (configuration not stated), the cytoprotection (ATP increase) was inactive: 21.3% [at 10 µM].
With CCOc1ccc(N(CC(=O)N2CCc3ccccc32)S(=O)(=O)c2c(C)noc2C)cc1 the “cytoprotection (ATP increase)” value was inactive: -5.04%.
With CCOC(=O)c1ccc(NCC(O)COc2ccccc2)cc1 (configuration not stated) the Potency was inconclusive: 4.47 µM [activator, single point].
In the case of O=c1cnc2cnc(Nc3ccccc3)nc2n1Cc1cccs1, the Potency is reported as inconclusive: 15.8 µM [activator, partial curve].
In the case of CN1CCN(c2ncc3nc(-c4ccc(Cl)cc4)c(=O)n(Cc4cccs4)c3n2)CC1, the Potency is reported as inconclusive: 0.0063 µM [activator, full curve, poor fit].
In the case of COc1ccc(N/C=C/C(=O)C(F)(F)F)cc1, the cytoprotection (ATP increase) is reported as inactive: -3.46% [at 10 µM].
For COc1cc2c(CCNC(C)=O)c[nH]c2cc1Cl, the Potency was inconclusive: 0.01 µM [activator, full curve].
In the case of COc1ccc(-c2nnc(Sc3nc4ccccc4o3)c3ccccc23)cc1, the Potency is reported as inconclusive: 2.82 µM [activator, partial curve].
For Cc1ccc(S(=O)(=O)NC(=O)NN2CCCCCC2)cc1, the Potency was inconclusive: 3.2 nM [activator, full curve, poor fit] and inconclusive: 22.4 µM [activator, single point].
With Cc1ccc(CSCCC(=O)NCCc2ccc(Cl)cc2)cc1 the Potency was inconclusive: 2.82 µM [activator, partial curve].
In the case of CCC1=NN(C(=O)c2ccc(Br)cc2)C(O)(c2ccc(C)cc2)C1 (configuration not stated), the Potency is reported as inconclusive: 1.26 µM [activator, single point].
In the case of COc1ccccc1NS(=O)(=O)c1ccc(NC(=O)c2ccncc2)cc1, the Potency is reported as inconclusive: 1.26 µM [activator, single point].
With NC(=O)c1cc[n+](CC2=C(C(=O)O)N3C(=O)[C@@H](NC(=O)[C@H](c4ccccc4)S(=O)(=O)[O-])[C@@H]3SC2)cc1 the Potency was inconclusive: 1.78 µM [activator, partial curve, poor fit].
For COC(=O)C1(C(=O)OC)C[C@@H]2CON=C2[C@H]1c1ccccc1, the Potency was inconclusive: 4.47 µM [activator, single point].
With c1ccc(N2CCN(c3nc4ccccc4n4cnnc34)CC2)cc1 the “cytoprotection (ATP increase)” value was inactive: -40.4%.
For CO[C@H]1C[C@@H]2C[C@H](O)C[C@@H](CC(=O)O[C@@H](/C=C\CC(C)C)C[C@@H]3CC[C@H](C)[C@@H](C1)O3)O2, the Potency was inconclusive: 6.31 µM [activator, single point].
For Cc1nnsc1C(=O)Nc1cccc(Cl)c1C, the Potency was inconclusive: 1.26 µM [activator, single point].
In the case of COC(=O)C1C(c2ccccc2)C=CC(c2ccccc2)C1C(=O)O (configuration not stated), the Potency is reported as inconclusive: 3.55 µM [activator, single point].
In the case of CCN(CC)CCOC(=O)C(c1ccccc1)c1ccccc1, the Potency is reported as inconclusive: 35.5 µM [activator, single point].
In the case of Cc1nc2ccccc2n1CC(O)COc1ccc(Br)cc1 (configuration not stated), the cytoprotection (ATP increase) is reported as inactive: 9.45% [at 10 µM].
In the case of CC(C)(C)NC(=O)c1cc(Cl)ccc1[N+](=O)[O-], the Potency is reported as inconclusive: 1.26 µM [activator, single point].
For C=C[C@@]1(C)CC(=O)[C@@]2(O)[C@@]3(C)[C@H](O)CCC(C)(C)[C@@H]3[C@H](O)[C@H](OC(C)=O)[C@]2(C)O1, the Potency was inconclusive: 0.0032 µM [activator, single point].
For N#C/C(=N\Nc1ccc(S(=O)(=O)N2CCCCC2)cc1)C(N)=S, the Potency was inconclusive: 0.1 µM [activator, partial curve, poor fit].
With COc1ccc(C(=O)/C(=C\c2ccco2)N2C=CC=CC2=C(C#N)C#N)cc1 the Potency was inconclusive: 6.31 µM [activator, single point].
In the case of COc1ccc(C(=O)N2CCC[C@@]3(CCN(Cc4ccncc4)C3)C2)cc1, the Potency is reported as inconclusive: 0.398 µM [activator, full curve, poor fit].
For CCOC(=O)Cc1csc(NC(=O)c2ccncc2)n1, the “cytoprotection (ATP increase)” value was inactive: -18.9%.
In the case of CCn1c2ccccc2c2cc(NC(=O)c3cc(OC)c(OC)c(OC)c3)ccc21, the “cytoprotection (ATP increase)” value is reported as inactive: -88.8%.
In the case of O=C(NCc1ccc2c(c1)OCO2)c1ccc(COc2cccc(Cl)c2)o1, the cytoprotection (ATP increase) is reported as inactive: -16% [at 10 µM].
With Cc1cc(Cl)c(S(=O)(=O)NCCC(=O)O)cc1OCC(N)=O the Potency was inconclusive: 0.0089 µM [activator, full curve].
With Cc1ccc(N2CCN(C3=NC(=O)C(Cc4ccccc4)S3)CC2)cc1 (configuration not stated) the Potency was inconclusive: 3.55 µM [activator, single point].
With N=C(CC1CC(=O)NC(=O)C1)C1=C(O)CCCC1=O the cytoprotection (ATP increase) was inactive: -15% [at 10 µM].
For CCOC(=O)C1=C(CC)Nc2ccccc2N=C1N, the Potency was inconclusive: 0.005 µM [activator, full curve, poor fit].
In the case of CC(=O)C1=C(O)C(=O)N(c2ccc(C)cc2)C1c1ccc([N+](=O)[O-])cc1 (configuration not stated), the Potency is reported as inconclusive: 2 µM [activator, partial curve].
For COc1ccc(C(=O)NCc2nnc(SCC(=O)Nc3cccc(F)c3)o2)cc1, the “cytoprotection (ATP increase)” value was inactive: -11.8%.
With COc1ccc(NC(=O)N2CCC3(CC2)CCN(C(=O)c2cnccn2)CC3)cc1 the “cytoprotection (ATP increase)” value was inactive: -36.4%.
For O=C1CC(SCc2nc3ccccc3[nH]2)C(=O)N1c1cccc(F)c1 (configuration not stated), the Potency was inconclusive: 5.62 µM [activator, single point].
